# Experimental data taken from the supplement of paper PMC8728848.
# This is one part of the list.
# B1: PX14343F-bfa-562-20-562 (Bacteroides fragilis) (protein)
# chain: CDDFLDSFPQDTVTNENFWKSKEDADKVLVDIYASLLPKDAIFFDEAMSDNAYLVWDWWGGAQQVANGSYTTSGEIPTNRWNGSYEVIRKCWFLLEGIEKIEDISEQDKNKIIGETYFMLAYNYYVLTSYFGDVPLVTKTLAIPESKQLVRTPKAEVVDYAINKLKEAAVMLEGLSQEKGRVTADACRFLIARMYLYNGDYSNVLETVKLLEGKYQLYREGDTPYEDLFSGVAENSCEVILSVVCDKRVGEIYTSHGGNGIMLLKGITGEDPYRGVTPSGSLVDAYPMADGRLIHEAGSSYDPKKPYEGRDPRFYQSIVYPTGQIKYLDVETGTVKERLYDPEDPTTVPEHQYNYSQPSATGYMWNKYIDYSVYAMNSVWDCTNDIIVFRYADVLLMKAEALLQTKGESAKEEVCNLIDQLRDRCSCGRVHRENYNSKDELMELLKNERRIELANEGLRYMDLIRWKDAEKNTIVTGVGLTGQMYGAYMRKDGVGKDDKTVDVDNTPRRYIETRYFNASKGYLFPIPQKERDLNPNLTQNPNW
# How the values were obtained:
# Test in all cases: glycan array binding signal (z-score within array); higher = stronger binding
# Details in all cases: glycan notation: IUPAC condensed, linker removed
# Gal3S(b1-4)Glc = biological target: Gal3S(b1-4)Glc
# Outline: (§1)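 Glycan array data were curated from 3228 arrays in the Consortium for Functional Glycomics database and kept only where the protein sequence was available. Glycan names were converted to IUPAC-condensed notation, and columns mapping to the same glycan were averaged. The binding signal is a within-array Z-score, averaged across arrays of the same protein sequence at different concentrations or buffers and across linkers. Negative Z-scores can be read as non-binding.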
# Gal3S(b1-4)Glc6S = biological target: Gal3S(b1-4)Glc6S
# Outline: as §1
# Gal3S(b1-4)GlcNAc = biological target: Gal3S(b1-4)GlcNAc
# Outline: as §1
# [1] = biological target: Gal3S(b1-4)[Fuc(a1-3)]Glc6S
# Outline: as §1
# [2] = biological target: Gal3S(b1-4)[Fuc(a1-3)]GlcNAc
# Outline: as §1
# [3] = biological target: Gal3S(b1-4)[Fuc(a1-3)]GlcNAc6S
# Outline: as §1
# Gal3S4S(b1-4)GlcNAc = biological target: Gal3S4S(b1-4)GlcNAc
# Outline: as §1
# Gal3S6S(b1-4)GlcNAc = biological target: Gal3S6S(b1-4)GlcNAc
# Outline: as §1
# Gal3S6S(b1-4)GlcNAc6S = biological target: Gal3S6S(b1-4)GlcNAc6S
# Outline: as §1
# Gal4S(b1-4)GlcNAc = biological target: Gal4S(b1-4)GlcNAc
# Outline: as §1
# Gal4S6S(b1-4)GlcNAc = biological target: Gal4S6S(b1-4)GlcNAc
# Outline: as §1
# Gal6P(b1-4)GlcNAc = biological target: Gal6P(b1-4)GlcNAc
# Outline: as §1
# Gal6S(b1-3)GlcNAc = biological target: Gal6S(b1-3)GlcNAc
# Outline: as §1
# Gal6S(b1-3)GlcNAc6S = biological target: Gal6S(b1-3)GlcNAc6S
# Outline: as §1
# Gal6S(b1-4)Glc = biological target: Gal6S(b1-4)Glc
# Outline: as §1
# Gal6S(b1-4)Glc6S = biological target: Gal6S(b1-4)Glc6S
# Outline: as §1
# Gal6S(b1-4)GlcNAc = biological target: Gal6S(b1-4)GlcNAc
# Outline: as §1
# Gal6S(b1-4)GlcNAc6S = biological target: Gal6S(b1-4)GlcNAc6S
# Outline: as §1
# GalNAc(a1-3)Gal = biological target: GalNAc(a1-3)Gal
# Outline: as §1
# GalNAc(a1-3)GalNAc = biological target: GalNAc(a1-3)GalNAc
# Outline: as §1
# [4] = biological target: GalNAc(a1-3)GalNAc(b1-3)Gal(a1-4)Gal(b1-4)Glc
# Outline: as §1
# [5] = biological target: GalNAc(a1-3)GalNAc(b1-3)Gal(a1-4)Gal(b1-4)GlcNAc
# Outline: as §1
# GalNAc(b1-3)Gal = biological target: GalNAc(b1-3)Gal
# Outline: as §1
# [6] = biological target: GalNAc(b1-3)Gal(a1-4)Gal(b1-4)GlcNAc
# Outline: as §1
# [7] = biological target: GalNAc(b1-3)Gal(a1-4)Gal(b1-4)GlcNAc(b1-3)Gal(b1-4)Glc
# Outline: as §1
# [8] = biological target: GalNAc(b1-3)Gal(a1-6)Gal(b1-4)Glc
# Outline: as §1
# GalNAc(b1-3)GalNAc = biological target: GalNAc(b1-3)GalNAc
# Outline: as §1
# GalNAc(b1-3)GlcNAc = biological target: GalNAc(b1-3)GlcNAc
# Outline: as §1
# GalNAc(b1-4)Gal(b1-4)Glc = biological target: GalNAc(b1-4)Gal(b1-4)Glc
# Outline: as §1
# GalNAc(b1-4)GlcNAc = biological target: GalNAc(b1-4)GlcNAc
# Outline: as §1
# [9] = biological target: GalNAc(b1-4)GlcNAc(b1-2)Man
# Outline: as §1
# [10] = biological target: GalNAc(b1-4)GlcNAc(b1-2)Man(a1-3)[GalNAc(b1-4)GlcNAc(b1-2)Man(a1-6)]Man(b1-4)GlcNAc(b1-4)GlcNAc
# Outline: as §1
# [11] = biological target: GalNAc(b1-4)GlcNAc(b1-3)GalNAc(b1-4)GlcNAc
# Outline: as §1
# GalNAc(b1-4)GlcNAc6S = biological target: GalNAc(b1-4)GlcNAc6S
# Outline: as §1
# GalNAc(b1-6)GalNAc = biological target: GalNAc(b1-6)GalNAc
# Outline: as §1
# GalNAc3S(b1-4)GlcNAc = biological target: GalNAc3S(b1-4)GlcNAc
# Outline: as §1
# GalNAc3S(b1-4)GlcNAc3S = biological target: GalNAc3S(b1-4)GlcNAc3S
# Outline: as §1
# [12] = biological target: GalNAc3S(b1-4)[Fuc(a1-3)]GlcNAc
# Outline: as §1
# GalNAc4S6S(b1-4)GlcNAc = biological target: GalNAc4S6S(b1-4)GlcNAc
# Outline: as §1
# GalNAc6S(b1-4)GlcNAc = biological target: GalNAc6S(b1-4)GlcNAc
# Outline: as §1
# Glc(a1-4)Glc = biological target: Glc(a1-4)Glc
# Outline: as §1
# [13] = biological target: Glc(a1-4)Glc(a1-4)Glc(a1-4)Glc
# Outline: as §1
# Glc(a1-6)Glc(a1-6)Glc = biological target: Glc(a1-6)Glc(a1-6)Glc
# Outline: as §1
# [14] = biological target: Glc(a1-6)Glc(a1-6)Glc(a1-6)Glc
# Outline: as §1
# Glc(b1-4)Glc = biological target: Glc(b1-4)Glc
# Outline: as §1
# Glc(b1-6)Glc = biological target: Glc(b1-6)Glc
# Outline: as §1
# GlcA(b1-3)Gal = biological target: GlcA(b1-3)Gal
# Outline: as §1
# GlcA(b1-3)GlcNAc = biological target: GlcA(b1-3)GlcNAc
# Outline: as §1
# GlcA(b1-6)Gal = biological target: GlcA(b1-6)Gal
# Outline: as §1
# [15] = biological target: GlcA3S(b1-3)Gal(b1-4)GlcNAc(b1-2)Man
# Outline: as §1
# [16] = biological target: GlcA3S(b1-3)Gal(b1-4)GlcNAc(b1-3)Gal(b1-4)Glc
# Outline: as §1
# [17] = biological target: GlcNAc(a1-3)Gal(b1-4)GlcNAc
# Outline: as §1
# [18] = biological target: GlcNAc(a1-4)Gal(b1-3)GlcNAc
# Outline: as §1
# [19] = biological target: GlcNAc(a1-4)Gal(b1-4)GalNAc
# Outline: as §1
# [20] = biological target: GlcNAc(a1-4)Gal(b1-4)GlcNAc
# Outline: as §1
# [21] = biological target: GlcNAc(a1-4)Gal(b1-4)GlcNAc(b1-3)Gal(b1-4)Glc
# Outline: as §1
# [22] = biological target: GlcNAc(a1-4)Gal(b1-4)GlcNAc(b1-3)Gal(b1-4)GlcNAc
# Outline: as §1
# [23] = biological target: GlcNAc(a1-4)Gal(b1-4)GlcNAc(b1-3)Gal(b1-4)GlcNAc(b1-3)Gal(b1-4)GlcNAc
# Outline: as §1
# [24] = biological target: GlcNAc(a1-4)Gal(b1-4)GlcNAc(b1-3)Gal(b1-4)[Fuc(a1-3)]GlcNAc(b1-3)Gal(b1-4)[Fuc(a1-3)]GlcNAc
# Outline: as §1
# [25] = biological target: GlcNAc(a1-6)Gal(b1-4)GlcNAc
# Outline: as §1
binder,measurement,setting,value
B1,glycan array binding signal (z-score),Gal3S(b1-4)Glc,-0.546
same,glycan array binding signal (z-score),Gal3S(b1-4)Glc6S,-0.513
same,glycan array binding signal (z-score),Gal3S(b1-4)GlcNAc,0.086
same,glycan array binding signal (z-score),[1],1.19
same,glycan array binding signal (z-score),[2],0.472
same,glycan array binding signal (z-score),[3],0.032
same,glycan array binding signal (z-score),Gal3S4S(b1-4)GlcNAc,0.242
same,glycan array binding signal (z-score),Gal3S6S(b1-4)GlcNAc,-0.271
same,glycan array binding signal (z-score),Gal3S6S(b1-4)GlcNAc6S,0.275
same,glycan array binding signal (z-score),Gal4S(b1-4)GlcNAc,-0.2
same,glycan array binding signal (z-score),Gal4S6S(b1-4)GlcNAc,-0.533
same,glycan array binding signal (z-score),Gal6P(b1-4)GlcNAc,-0.538
same,glycan array binding signal (z-score),Gal6S(b1-3)GlcNAc,-0.449
same,glycan array binding signal (z-score),Gal6S(b1-3)GlcNAc6S,-0.301
same,glycan array binding signal (z-score),Gal6S(b1-4)Glc,-0.233
same,glycan array binding signal (z-score),Gal6S(b1-4)Glc6S,1.31
same,glycan array binding signal (z-score),Gal6S(b1-4)GlcNAc,0.658
same,glycan array binding signal (z-score),Gal6S(b1-4)GlcNAc6S,0.35
same,glycan array binding signal (z-score),GalNAc(a1-3)Gal,-0.48
same,glycan array binding signal (z-score),GalNAc(a1-3)GalNAc,0.306
same,glycan array binding signal (z-score),[4],-0.145
same,glycan array binding signal (z-score),[5],0.154
same,glycan array binding signal (z-score),GalNAc(b1-3)Gal,-0.381
same,glycan array binding signal (z-score),[6],0.292
same,glycan array binding signal (z-score),[7],0.676
same,glycan array binding signal (z-score),[8],-0.256
same,glycan array binding signal (z-score),GalNAc(b1-3)GalNAc,-0.415
same,glycan array binding signal (z-score),GalNAc(b1-3)GlcNAc,-0.444
same,glycan array binding signal (z-score),GalNAc(b1-4)Gal(b1-4)Glc,0.248
same,glycan array binding signal (z-score),GalNAc(b1-4)GlcNAc,0.305
same,glycan array binding signal (z-score),[9],0.078
same,glycan array binding signal (z-score),[10],2.1
same,glycan array binding signal (z-score),[11],0.152
same,glycan array binding signal (z-score),GalNAc(b1-4)GlcNAc6S,-0.295
same,glycan array binding signal (z-score),GalNAc(b1-6)GalNAc,-0.467
same,glycan array binding signal (z-score),GalNAc3S(b1-4)GlcNAc,0.104
same,glycan array binding signal (z-score),GalNAc3S(b1-4)GlcNAc3S,0.259
same,glycan array binding signal (z-score),[12],-0.153
same,glycan array binding signal (z-score),GalNAc4S6S(b1-4)GlcNAc,-0.684
same,glycan array binding signal (z-score),GalNAc6S(b1-4)GlcNAc,-0.157
same,glycan array binding signal (z-score),Glc(a1-4)Glc,0.041
same,glycan array binding signal (z-score),[13],-0.074
same,glycan array binding signal (z-score),Glc(a1-6)Glc(a1-6)Glc,-0.43
same,glycan array binding signal (z-score),[14],-1.14
same,glycan array binding signal (z-score),Glc(b1-4)Glc,0.101
same,glycan array binding signal (z-score),Glc(b1-6)Glc,0.292
same,glycan array binding signal (z-score),GlcA(b1-3)Gal,-0.822
same,glycan array binding signal (z-score),GlcA(b1-3)GlcNAc,0.48
same,glycan array binding signal (z-score),GlcA(b1-6)Gal,0.748
same,glycan array binding signal (z-score),[15],-0.132
same,glycan array binding signal (z-score),[16],-1.14
same,glycan array binding signal (z-score),[17],-1.06
same,glycan array binding signal (z-score),[18],-0.218
same,glycan array binding signal (z-score),[19],-0.216
same,glycan array binding signal (z-score),[20],-0.034
same,glycan array binding signal (z-score),[21],-0.724
same,glycan array binding signal (z-score),[22],0.162
same,glycan array binding signal (z-score),[23],-0.864
same,glycan array binding signal (z-score),[24],0.865
same,glycan array binding signal (z-score),[25],-0.455

# Reformatted with tabs: part of the list above
binder	measurement	setting	value
B1	glycan array binding signal (z-score)	GalNAc3S(b1-4)GlcNAc3S	0.259
same	glycan array binding signal (z-score)	[12]	-0.153
